# According to patent US20180362625A1 (COMMONWEALTH SCIENTIFIC AND INDUSTRIAL RESEARCH ORGANISATION, published 2018):
# These are yes or no findings as the source states them, for the method shown. Some entries that bind do so weakly or less than the wild type. Sequences can lack the tags named with a protein.
# T1: IRF3 transfected into HEK293T cells (UniProt Q14653)
# T1 sequence (looked up): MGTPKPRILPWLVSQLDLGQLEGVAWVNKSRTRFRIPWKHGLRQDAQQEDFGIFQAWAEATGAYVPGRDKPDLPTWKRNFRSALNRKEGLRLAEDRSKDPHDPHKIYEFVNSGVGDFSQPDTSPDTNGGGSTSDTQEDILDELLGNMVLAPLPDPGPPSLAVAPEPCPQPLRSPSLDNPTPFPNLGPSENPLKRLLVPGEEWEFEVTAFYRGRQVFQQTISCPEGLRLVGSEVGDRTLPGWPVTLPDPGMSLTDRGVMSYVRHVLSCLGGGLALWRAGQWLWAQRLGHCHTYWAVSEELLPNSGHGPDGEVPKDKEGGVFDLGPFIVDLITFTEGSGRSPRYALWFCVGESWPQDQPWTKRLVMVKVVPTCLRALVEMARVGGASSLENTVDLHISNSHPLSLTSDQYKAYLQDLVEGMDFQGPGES
# B1: Flag-tagged C6orf106 (C6orf106-FLAG, expressed from pCAGGs-C6-FLAG) (other)
# chain: MEGMDVDLDPELMQKFSCLGTTDKDVLISEFQRLLGFQLNPAGCAFFLDMTNWNLQAAIGAYYDFESPNISVPSMSFVEDVTIGEGESIPPDTQFVKTWRIQNSGAEAWPPGVCLKYVGGDQFGHVNMVMVRSLEPQEIADVSVQMCSPSRAGMYQGQWRMCTATGLYYGDVIWVILSVEVGGLLGVTQQLSSFETEFNTQPHRKVEGNFNPFASPQKNRQSDENNLKDPGGSEFDSISKNTWAPAPDTWAPAPDQTEQDQNRLSQNSVNLSPSSHANNLSVVTYSKGLHGPYPFGQSGDYKDDDDK
# notes: Over-expressed in HeLa or HEK293T cells and tested in cell lysates by co-immunoprecipitation
# Columns and labels:
# [1] = target: T1, IRF3 transfected into HEK293T cells; experiment: indirect immunoprecipitation with anti-IRF3 antibody from transfected HEK293T lysates, western blot with anti-FLAG
# [2] = target: T1, IRF3 transfected into HEK293T cells; experiment: indirect immunoprecipitation with anti-IRF3 antibody from HEK293T cells transfected with IRF3 and C6orf106, western blot with anti-FLAG, IgG isotype as negative control
binder,measurement,setting,value
B1,binding,[1],binds
same,binding,[2],binds
